Source: article PMC6593515
The exact form of at least one protein or probe is not confirmed. No signal at the amounts used counts as a negative.

What was measured:
GST-ONAC066 [1] = test: competition with a labelled probe; conditions: 200x unlabeled vs biotin-wJBSL (EMSA); LightShift Chemiluminescent EMSA Kit, 20 uL with 5x EMSA buffer, 2 ug protein, 1 uL biotin probe; competitor 200x, 20 min preincubation; 6% PAGE; recombinant protein; protein details: GST (N-terminal, pGEX-6p-1)
GST-ONAC066 [2] = test: EMSA; conditions: LightShift Chemiluminescent EMSA Kit, 20 uL with 5x EMSA buffer, 2 ug protein, 1 uL biotin probe; competitor 200x, 20 min preincubation; 6% PAGE; recombinant protein; protein details: GST (N-terminal, pGEX-6p-1)

Sequence: GGGAGAAAAAAAGACAGGAAAAAGTTG (double strand) [mJBSL unlabeled competitor]
- binding result (GST-ONAC066 [1]): no binding

Sequence: GGGAGAAAAAAAGACAGGAAAAAGTTG (double strand) [mJBSL]
- binding result (GST-ONAC066 [2]): no binding

Sequence: GGGAGATGCCGTGACAGGACGCGGTTG (double strand) [wJBSL unlabeled competitor]
- binding result (GST-ONAC066 [1]): binds

Sequence: GGGAGATGCCGTGACAGGACGCGGTTG (double strand) [wJBSL]
- binding result (GST-ONAC066 [2]): binds
